# No constants are given. Whether binding was seen depends on the method and setting. Binding seen in cells or lysates may run through a third protein. Some entries that bind do so weakly or less than the wild type.
# Amino acid sequences for entries named in this document (tags omitted). A change or cut given only in a name is not applied to a line headed by its entry. Residues count along the entry.
# UniProt Q15648: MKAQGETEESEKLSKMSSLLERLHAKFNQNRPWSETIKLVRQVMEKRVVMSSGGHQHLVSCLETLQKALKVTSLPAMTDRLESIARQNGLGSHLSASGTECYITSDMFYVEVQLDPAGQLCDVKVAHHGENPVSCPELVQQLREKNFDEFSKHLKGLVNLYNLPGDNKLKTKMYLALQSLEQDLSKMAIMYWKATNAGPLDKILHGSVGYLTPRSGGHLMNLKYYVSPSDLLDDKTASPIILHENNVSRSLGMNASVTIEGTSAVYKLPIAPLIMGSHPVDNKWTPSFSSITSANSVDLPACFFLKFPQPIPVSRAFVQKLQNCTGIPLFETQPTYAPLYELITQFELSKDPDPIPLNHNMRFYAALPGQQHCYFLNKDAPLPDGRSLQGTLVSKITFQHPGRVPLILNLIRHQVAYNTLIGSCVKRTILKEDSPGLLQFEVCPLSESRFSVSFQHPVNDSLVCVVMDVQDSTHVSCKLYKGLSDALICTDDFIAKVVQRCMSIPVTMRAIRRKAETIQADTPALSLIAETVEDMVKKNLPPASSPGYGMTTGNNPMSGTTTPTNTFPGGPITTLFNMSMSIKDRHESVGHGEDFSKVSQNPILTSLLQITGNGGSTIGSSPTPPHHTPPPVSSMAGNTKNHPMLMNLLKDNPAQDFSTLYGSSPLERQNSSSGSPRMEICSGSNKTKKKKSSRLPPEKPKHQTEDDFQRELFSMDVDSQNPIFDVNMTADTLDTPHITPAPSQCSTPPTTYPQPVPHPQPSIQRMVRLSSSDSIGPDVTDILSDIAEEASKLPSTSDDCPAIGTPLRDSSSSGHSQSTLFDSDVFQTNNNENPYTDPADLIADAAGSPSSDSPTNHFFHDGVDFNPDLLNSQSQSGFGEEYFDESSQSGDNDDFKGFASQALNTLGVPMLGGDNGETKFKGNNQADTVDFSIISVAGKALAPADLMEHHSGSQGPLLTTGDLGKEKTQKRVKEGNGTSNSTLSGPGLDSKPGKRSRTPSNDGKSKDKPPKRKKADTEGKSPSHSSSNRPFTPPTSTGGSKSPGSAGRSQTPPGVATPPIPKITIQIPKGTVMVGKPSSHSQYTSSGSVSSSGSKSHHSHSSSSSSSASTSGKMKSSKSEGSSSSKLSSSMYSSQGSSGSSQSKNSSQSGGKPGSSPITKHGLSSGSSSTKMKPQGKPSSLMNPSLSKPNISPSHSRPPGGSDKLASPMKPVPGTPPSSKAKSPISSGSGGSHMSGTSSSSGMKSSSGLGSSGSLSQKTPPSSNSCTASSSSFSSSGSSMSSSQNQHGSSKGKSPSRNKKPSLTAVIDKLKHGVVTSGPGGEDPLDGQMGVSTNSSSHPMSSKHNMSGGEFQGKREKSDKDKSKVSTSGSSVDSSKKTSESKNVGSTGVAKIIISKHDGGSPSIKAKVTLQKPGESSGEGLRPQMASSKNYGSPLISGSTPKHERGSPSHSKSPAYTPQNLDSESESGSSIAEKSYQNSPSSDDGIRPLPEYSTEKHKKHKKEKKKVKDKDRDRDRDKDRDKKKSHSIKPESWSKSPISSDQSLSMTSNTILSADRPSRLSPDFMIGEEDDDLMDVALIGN
# UniProt P15941, residues 1098-1255: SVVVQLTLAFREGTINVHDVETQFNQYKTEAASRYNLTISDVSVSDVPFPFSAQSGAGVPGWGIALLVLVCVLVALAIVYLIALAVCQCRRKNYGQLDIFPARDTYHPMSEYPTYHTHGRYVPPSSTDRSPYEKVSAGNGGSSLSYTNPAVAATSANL
# UniProt Q9Y6Q9: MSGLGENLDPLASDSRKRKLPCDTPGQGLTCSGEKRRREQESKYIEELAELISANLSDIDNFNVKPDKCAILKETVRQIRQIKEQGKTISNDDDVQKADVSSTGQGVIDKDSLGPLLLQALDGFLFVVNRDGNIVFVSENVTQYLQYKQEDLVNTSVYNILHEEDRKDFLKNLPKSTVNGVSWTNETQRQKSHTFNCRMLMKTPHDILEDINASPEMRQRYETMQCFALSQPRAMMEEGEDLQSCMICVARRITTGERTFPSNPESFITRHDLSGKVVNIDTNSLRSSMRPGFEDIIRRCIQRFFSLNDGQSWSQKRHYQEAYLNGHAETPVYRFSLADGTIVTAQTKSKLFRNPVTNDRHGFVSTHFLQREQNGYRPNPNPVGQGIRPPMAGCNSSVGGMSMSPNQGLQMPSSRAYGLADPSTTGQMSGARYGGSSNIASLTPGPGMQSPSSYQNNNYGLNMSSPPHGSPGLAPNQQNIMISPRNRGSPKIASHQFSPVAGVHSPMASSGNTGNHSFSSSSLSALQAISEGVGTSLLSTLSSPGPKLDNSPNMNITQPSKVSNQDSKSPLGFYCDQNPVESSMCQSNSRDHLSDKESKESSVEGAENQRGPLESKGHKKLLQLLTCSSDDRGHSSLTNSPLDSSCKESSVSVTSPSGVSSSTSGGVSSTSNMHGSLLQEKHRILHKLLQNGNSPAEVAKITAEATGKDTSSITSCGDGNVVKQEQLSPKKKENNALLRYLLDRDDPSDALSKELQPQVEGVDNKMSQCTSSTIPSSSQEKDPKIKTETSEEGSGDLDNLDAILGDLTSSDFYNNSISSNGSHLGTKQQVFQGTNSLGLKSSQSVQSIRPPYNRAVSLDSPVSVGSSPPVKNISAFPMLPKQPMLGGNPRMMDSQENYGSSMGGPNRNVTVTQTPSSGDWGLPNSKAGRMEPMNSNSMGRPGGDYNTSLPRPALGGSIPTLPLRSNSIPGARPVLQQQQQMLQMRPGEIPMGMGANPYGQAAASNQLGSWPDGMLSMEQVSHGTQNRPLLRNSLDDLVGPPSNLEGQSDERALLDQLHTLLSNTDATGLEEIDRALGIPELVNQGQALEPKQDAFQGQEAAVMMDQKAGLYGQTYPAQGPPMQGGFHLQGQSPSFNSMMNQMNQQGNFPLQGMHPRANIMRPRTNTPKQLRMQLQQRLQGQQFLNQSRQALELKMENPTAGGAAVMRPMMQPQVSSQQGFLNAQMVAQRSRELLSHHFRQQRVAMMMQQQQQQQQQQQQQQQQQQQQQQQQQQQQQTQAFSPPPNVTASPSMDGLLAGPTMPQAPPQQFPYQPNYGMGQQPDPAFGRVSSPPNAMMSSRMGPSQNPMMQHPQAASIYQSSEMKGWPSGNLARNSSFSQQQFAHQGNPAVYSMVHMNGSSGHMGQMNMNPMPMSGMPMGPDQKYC
# UniProt P49137: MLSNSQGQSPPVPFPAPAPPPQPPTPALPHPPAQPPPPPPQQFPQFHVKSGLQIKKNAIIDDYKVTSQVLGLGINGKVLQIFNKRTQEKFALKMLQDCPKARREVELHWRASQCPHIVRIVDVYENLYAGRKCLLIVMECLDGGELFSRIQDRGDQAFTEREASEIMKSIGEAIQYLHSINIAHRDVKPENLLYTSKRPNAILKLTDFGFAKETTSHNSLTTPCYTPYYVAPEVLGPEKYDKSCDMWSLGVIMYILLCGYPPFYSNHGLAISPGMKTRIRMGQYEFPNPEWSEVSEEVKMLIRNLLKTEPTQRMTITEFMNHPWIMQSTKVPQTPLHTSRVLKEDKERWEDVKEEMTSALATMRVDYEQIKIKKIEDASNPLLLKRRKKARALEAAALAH
# UniProt P03372: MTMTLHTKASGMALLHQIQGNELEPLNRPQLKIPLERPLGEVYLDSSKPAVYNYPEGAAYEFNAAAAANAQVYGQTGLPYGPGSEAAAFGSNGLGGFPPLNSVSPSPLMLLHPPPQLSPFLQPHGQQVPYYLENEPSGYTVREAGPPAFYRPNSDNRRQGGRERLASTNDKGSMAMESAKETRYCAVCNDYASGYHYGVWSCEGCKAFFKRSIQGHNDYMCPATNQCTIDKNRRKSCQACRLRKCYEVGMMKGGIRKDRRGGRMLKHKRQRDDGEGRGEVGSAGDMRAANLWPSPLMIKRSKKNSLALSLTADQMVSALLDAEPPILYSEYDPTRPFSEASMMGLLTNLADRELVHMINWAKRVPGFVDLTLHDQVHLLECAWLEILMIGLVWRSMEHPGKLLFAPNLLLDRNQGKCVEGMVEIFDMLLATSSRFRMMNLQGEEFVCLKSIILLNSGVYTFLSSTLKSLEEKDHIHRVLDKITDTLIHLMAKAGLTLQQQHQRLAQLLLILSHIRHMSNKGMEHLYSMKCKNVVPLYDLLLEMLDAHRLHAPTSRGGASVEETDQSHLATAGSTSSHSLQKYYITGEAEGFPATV
# Columns and labels:
# [1] = molecular target: mediator subunit 1 (MED1) (human (endogenous in MCF-7)) (UniProt Q15648); assay: co-IP; nuclear lysates from MCF-7 cells treated with 100 nM 17beta-estradiol (E2) for 3 h; precipitated with anti-MUC1-C, anti-SRC-3 or anti-MED1 (control IgG) on Dynabeads Protein G; immunoblot
# [2] = molecular target: MUC1-C (MUC1 C-terminal subunit) (human (endogenous in MCF-7)) (UniProt P15941); assay: as above
# [3] = molecular target: steroid receptor coactivator 3 (SRC-3/AIB1/NCOA3) (human (endogenous in MCF-7)) (UniProt Q9Y6Q9); assay: as above
# [4] = molecular target: MUC1-C (MUC1 C-terminal subunit) (human (endogenous in MCF-7)) (UniProt P15941); assay: co-IP; nuclear lysates from MCF-7/ER(Y537S) cells grown in hormone deprived conditions for 2 days, without and with E2 stimulation; precipitated with anti-MUC1-C (control IgG) on Dynabeads Protein G; immunoblot
# [5] = molecular target: MUC1-C (MUC1 C-terminal subunit) (human (endogenous in MCF-7)) (UniProt P15941); assay: co-IP; Supplemental Fig. S2g, legend not shown; cells, antibody and treatment not stated; the methods describe only co-immunoprecipitation from nuclear lysates
Substance,binding [1],binding [2],binding [4],other results
steroid receptor coactivator 3 (SRC-3/AIB1/NCOA3) (from UniProt Q9Y6Q9 1-1424),,binds,binds,
mitogen-activated protein (MAP) kinase-activated protein kinase 2 (MAPKAPK2; MK2) (from UniProt P49137 1-400),,,,binding [5]: binds
ER(Y537S) (from UniProt P03372 1-595),,,binds,

# More lines, main results first:
binding [1],binding [2],binding [4],Substance,other results
binds,binds,,estrogen receptor alpha (ER) (from UniProt P03372 1-595),
binds,,,MUC1-C (MUC1 C-terminal subunit) (from UniProt P15941 1098-1255),binding [3]: binds
,binds,binds,mediator subunit 1 (MED1) (from UniProt Q15648 1-1581),
